These are yes or no findings as the source states them, for the method shown. Binding seen in cells or lysates may run through a third protein. Some entries that bind do so weakly or less than the wild type.

The chains behind the UniProt entries cited, without tags or fusion partners.
UniProt P35570: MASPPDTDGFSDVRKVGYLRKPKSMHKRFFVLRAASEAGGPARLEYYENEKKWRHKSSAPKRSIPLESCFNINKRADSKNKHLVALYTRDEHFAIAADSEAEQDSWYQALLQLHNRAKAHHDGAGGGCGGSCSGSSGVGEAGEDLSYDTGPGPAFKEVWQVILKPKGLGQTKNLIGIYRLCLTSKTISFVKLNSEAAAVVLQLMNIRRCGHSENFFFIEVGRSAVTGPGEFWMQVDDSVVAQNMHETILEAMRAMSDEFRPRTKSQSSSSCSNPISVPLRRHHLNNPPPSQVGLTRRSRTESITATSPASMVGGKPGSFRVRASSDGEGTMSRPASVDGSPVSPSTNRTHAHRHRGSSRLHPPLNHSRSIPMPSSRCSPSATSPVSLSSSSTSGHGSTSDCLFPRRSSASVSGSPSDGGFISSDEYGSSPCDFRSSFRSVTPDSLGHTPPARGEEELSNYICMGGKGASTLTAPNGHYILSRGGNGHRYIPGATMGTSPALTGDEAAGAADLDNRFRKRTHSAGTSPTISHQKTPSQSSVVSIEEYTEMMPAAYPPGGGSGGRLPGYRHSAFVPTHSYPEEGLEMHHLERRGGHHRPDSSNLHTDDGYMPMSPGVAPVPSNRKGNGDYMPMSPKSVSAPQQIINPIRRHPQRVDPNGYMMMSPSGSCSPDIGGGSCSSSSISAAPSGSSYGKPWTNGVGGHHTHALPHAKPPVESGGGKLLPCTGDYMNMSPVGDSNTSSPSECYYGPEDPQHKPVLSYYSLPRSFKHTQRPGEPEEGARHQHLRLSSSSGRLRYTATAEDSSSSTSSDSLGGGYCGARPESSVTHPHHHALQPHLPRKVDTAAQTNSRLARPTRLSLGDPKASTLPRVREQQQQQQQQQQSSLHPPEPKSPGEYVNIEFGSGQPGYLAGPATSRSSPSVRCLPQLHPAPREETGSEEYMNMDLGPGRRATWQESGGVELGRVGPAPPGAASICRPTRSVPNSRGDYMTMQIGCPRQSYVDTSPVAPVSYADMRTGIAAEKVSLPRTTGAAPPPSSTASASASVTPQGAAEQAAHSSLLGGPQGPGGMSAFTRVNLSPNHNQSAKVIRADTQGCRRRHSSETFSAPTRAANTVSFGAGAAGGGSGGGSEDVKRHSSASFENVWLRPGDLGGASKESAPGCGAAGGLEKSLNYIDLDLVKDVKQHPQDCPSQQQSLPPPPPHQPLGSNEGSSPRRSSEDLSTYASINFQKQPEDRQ

The record followed here is PMC6937568.

This test has as its target Insulin receptor substrate 1 (endogenous, rat primary neurons) (rat (endogenous in rat primary neurons)) (UniProt P35570). The experiment in a line: proximity ligation; in situ PLA (DuoLink kit) in rat primary neurons with mouse anti-DYRK1A and rabbit anti-IRS-1 primary antibodies; negative controls with one antibody replaced by IgG; confocal Z-stacks.

On to “Dual-specificity tyrosine phosphorylation-regulated kinase 1A (endogenous, rat primary neurons) (from UniProt Q63470 1-763) (enzyme)”, for which the binding result is on record as “binds”.
